Reference: patent US12251411B2, “Methods of treating endometrial cancer using hemp extract” (Ecofibre USA Inc., priority 2021, dated 2025)

Test system: patient derived organoids
Assay: Calculated IC50 of various agents on organoids derived from the chemoresistant patient (PD3D cell culture)
Type: cell-based, human
Settings: organoids of the chemoresistant stage IV patient
Protocol: The IC50 values were calculated from such tests. This value indicates the dosage at which 50% of the organoids were killed due to treatment.

Row | SMILES | Calculated IC50 PD3D Cell Culture
1 | COc1cc2c(c(OC)c1OC)-c1ccc(OC)c(=O)cc1[C@@H](NC(C)=O)CC2 [Colchicine] | Not Reached
2 | CC(C)NCC(O)COc1cccc2ccccc12 (centres unmarked) [Propranolol] | Not Reached
